Patent publication US7390806B2, “Antibiotics containing borinic acid complexes and methods of use” (Anacor Pharmaceuticals, Inc., priority 2002, dated 2008)
≈ marks a conversion by molar mass, not a printed value.

Test system: Candida albicans ATCC 90028
Assay: Antifungal in vitro MIC, Candida albicans
Assay type: cell-based
Details: ATCC90028, percent inhibition >= 80%

OC(Cn1cncn1)(Cn1cncn1)c1ccc(F)cc1F [Fluconazole, reference compound]
MIC: 0.25 µg/mL (≈ 0.816 µM)
